Laboratory results from US10532069B2, “Compositions and methods for treating joints” (DePuy Synthes Products, Inc., priority 2015, dated 2020).
At least one compound was matched to its structure with a doubt left.

Test system: PGPS (peptidoglycan polysaccharide) reactivation arthritis in male Lewis rats
Assay: PGPS model of episodic inflammatory arthritis: weight bearing and gait analysis
Type: in vivo
Procedure: The PGPS model of arthritis is used to simulate episodic inflammation of the joint. PGPS (peptidoglycan polysaccharide) is a streptococcal cell wall formulation that is injected directly into the joint of the test subject, resulting in a painful inflammatory response. Unlike the continuous FCA response, the inflammatory pain from PGPS is transient, typically lasting only a few days. Following this “priming” injection to the joint, subsequent systemic injections result in inflammatory flares in the previously injected joint for a period of several days. The “reactivation” inflammatory flares can be repeated multiple times, with the inflammatory pain generally decreasing with subsequent reactivation cycles. Alternatively, the joint can be “reprimed” following the initial reactivation, resulting in a more robust inflammatory response in subsequent reactivations.
As with the rat MMT model, the effect of intra-articular therapies is assessed by static weight bearing measurements. It is also useful to conduct a gait analysis of treated animals to assess the effect of treatments on normal function. Gait analysis may reveal functional improvements that are not detectable by weight bearing measurements. In the rat model, gait analysis is done by assessing the paw print pattern of the animal over a defined walking distance. In the present study, the bottom of the rat paw was colored with blue ink, and the dorsal side of the paw was covered in black ink, just prior to the gait analysis measurement. The animal was induced to walk across a sheet of white paper, and gait abnormalities were gauged by assessing the ink patterns compared to untreated animals. […]
In the present experiment, two reactivation cycles were induced in male Lewis rats following the initial PGPS intra-articular injection. […] Weight bearing and gait analysis scores were recorded on days 1, 4, 7, and 14 following the reactivation injection. […] Weight bearing and gait analysis scores were recorded on days 1, 2, 3, and 4 following reactivation. […]

Cc1ccc(-c2cc(C(F)(F)F)nn2-c2ccc(S(N)(=O)=O)cc2)cc1 [celecoxib]
significant improvement: gait analysis score (PGPS first reactivation, day 1) | weight bearing deficit (PGPS first reactivation, day 1, FIG. 9) | weight bearing deficit (PGPS second reactivation (after repriming))
